According to US20160289737:
Construct, isoform or probe ends are uncertain for at least one entry.

Test system: Vibhar transposase
Test: binding assay
Conditions: purified recombinant protein, protein details: US Application 20120301925

AGATGTGATCAAGAGACAG (double strand) [adapter E8]
binding result (PS at several positions (FIG. 18), 20 pg human DNA, 80-180 ng/ml transposase, variant of adapter 78): binds

AGATGTGATCAAGAGACAG (double strand) [adapter 78]
binding result (20 pg human DNA, 80-180 ng/ml transposase, practically no nuclease degradation): binds

CTGTCTCTTGATCACAAGT (double strand)
binding result (fragmentation/tagging of E. coli DNA, 5 mM MnCl2, Bicine pH 7.5, 46 or 56 C): binds
